Experimental data as given in patent US8003675B2 (priority 2006, dated 2011).
Some of these results come from one statement about several compounds together.

Legend:
Erysiphe graminis = test: Test for preventive effect on powdery mildew of wheat; assay type: in vivo; details: wheat (Nohrin No. 61), foliar spray 500 ppm, examined 7 days later
Pyricularia oryzae = assay type: in vivo; details: paddy rice (Aichi Asahi) 4-leaf stage, foliar spray 500 ppm, lesions counted 5 days after inoculation

SMILES	protective value (Erysiphe graminis)	protective value (Pyricularia oryzae)
CC=CC=CC(=O)OCc1snc(Cl)c1Cl [I-24]	≥ 75%	
O=C(OCc1snc(Cl)c1Cl)c1ccccc1 [II-1, (3,4-dichloroisothiazol-5-yl)methyl benzoate]	≥ 75%	
Cc1ccccc1C(=O)OCc1snc(Cl)c1Cl [II-5]	≥ 75%	
N#Cc1ccccc1C(=O)OCc1snc(Cl)c1Cl [II-17]		≥ 80%
COC(=O)c1ccccc1C(=O)OCc1snc(Cl)c1Cl [II-24]	≥ 75%	≥ 80%
O=C(OCc1snc(Cl)c1Cl)c1ccccc1[N+](=O)[O-] [II-55]	≥ 75%	
COc1ccccc1C(=O)OCc1snc(Cl)c1Cl [II-57]	≥ 75%	
COc1cccc(OC)c1C(=O)OCc1snc(Cl)c1Cl [II-79]	≥ 75%	
Cc1cccc([N+](=O)[O-])c1C(=O)OCc1snc(Cl)c1Cl [II-82]	≥ 75%	
